Measured data: PubChem BioAssay AID1259424 (University of Nebraska Medical Center, 2018)
This is one part, drawn at random, of about 14,000 deposited reagents. 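Higher correlation or smaller distance means closer resemblance to KSR1 loss; control wells, including KSR1 knockdowns, recur on many plates.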 Not all columns of the deposit are shown. Not stated in the record: the time to read-out.

Purpose: 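Rank knockdowns across the genome by resemblance to the KSR1 depletion profile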 (primary screen)
Cell system: human HCT116 colon cancer cells
Reagents: siRNA pool against human genes, 50 nM
Detection: 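Log2 levels of six mRNAs (branched-DNA multiplex), adjusted by two reference genes and the non-targeting median, then scored against the average KSR1 knockdown pattern as Pearson r and euclidean distance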
Scale: mean correlation with KSR1 profile: higher = expression change more like KSR1 knockdown

For MCAT, how do the results read?
mean correlation with KSR1 profile: 0.509

Which result is listed for SCN4B (sodium voltage-gated channel beta subunit 4)?
mean correlation with KSR1 profile: -0.249

What did the screen give for RBP2 (retinol binding protein 2)?
mean correlation with KSR1 profile: 0.163

How did the screen score TOR3A (torsin family 3 member A)?
mean correlation with KSR1 profile: -0.674

For SFTPA2B (retired record), what does the deposit list?
mean correlation with KSR1 profile: -0.0268

How did the screen score MOCOS (molybdenum cofactor sulfurase)?
mean correlation with KSR1 profile: -0.654

How did the screen score AGA (aspartylglucosaminidase)?
mean correlation with KSR1 profile: -0.435

2 entries from above, set out differently.
Gene | mean correlation with KSR1 profile
RBP2 (retinol binding protein 2) | 0.163
TOR3A (torsin family 3 member A) | -0.674

Additional results:
What did the screen give for PCBD1 (pterin-4 alpha-carbinolamine dehydratase 1)?
mean correlation with KSR1 profile: 0.163

With PER1 (period circadian regulator 1), what was measured?
mean correlation with KSR1 profile: -0.0626

With DNAJB1 (DnaJ heat shock protein family (Hsp40) member B1), what does the deposit list?
mean correlation with KSR1 profile: 0.363

How did the screen score HLA-B (major histocompatibility complex, class I, B)?
mean correlation with KSR1 profile: -0.265

For AKT1S1 (AKT1 substrate 1), what was measured?
mean correlation with KSR1 profile: -0.439

What did the screen give for GTF2A2 (general transcription factor IIA subunit 2)?
mean correlation with KSR1 profile: 0.318

With SLC25A17, how do the results read?
mean correlation with KSR1 profile: 0.375

What is on record for TCEAL7 (transcription elongation factor A like 7)?
mean correlation with KSR1 profile: -0.376

For HDAC10 (histone deacetylase 10), what was measured?
mean correlation with KSR1 profile: -0.0665

With EPHA6 (EPH receptor A6), what was measured?
mean correlation with KSR1 profile: -0.331

With CAPN11 (calpain 11), what was measured?
mean correlation with KSR1 profile: 0.104

For OPA1 (OPA1 mitochondrial dynamin like GTPase), what was measured?
mean correlation with KSR1 profile: -0.277
